The list is a part of this screen's results and no random one: it gathers tests that were run many times, whatever their T/C, doses with no T/C, and many T/C values between a quarter and a half above the control. Other doses and runs of a compound stand elsewhere. T/C: endpoint of the treated group in % of that of the vehicle group. Some doses have a count of surviving animals in place of a T/C: the source files T/C as zero there, which appears to mark a toxic dose or a test without result, not a measured value. Some doses without a T/C left all or most animals alive at the check, yet need not have been tolerated: the source hardly ever lists a survival T/C far under the control, and the zero likely stands for such cases as well. Survivors were counted at the toxicity check, usually on the fifth day, unless a day is given; later deaths do not show. Schedule codes are those of the source, read here as Q, the interval in days (D) or hours (H), X, the number of doses. Where survival is the endpoint, this PubChem deposit counts one and a half times the control or more as active, and values a quarter to a half above the control carry no call in these data; other NCI protocols may use other cut-offs. Some T/C values are followed by the survivors on the day toxicity was checked, most often the fifth; without a count, all were alive then. Some doses were run more than once; the values are given in rising order.
Test system: P388 leukemia ip, CD2F1 mice, survival T/C
Assay: NCI In Vivo Anticancer Drug Screen. Data for tumor model P388 Leukemia (intraperitoneal) in CD2F1 (CDF1) mice
Settings: T/C endpoint: median survival time, higher T/C = longer survival
[1] = dose: 200.0 mg/kg/injection, schedule: Q01DX009 (ip), vehicle: Klucel (hydroxypropylcellulose) (HPC)
[2] = dose: 50.0 mg/kg/injection, schedule: Q01DX009 (ip), vehicle: saline with Tween-80
[3] = dose: 100.0 mg/kg/injection, schedule: Q01DX009 (ip), vehicle: saline with Tween-80
[4] = dose: 50.0 mg/kg/injection, schedule: Q01DX005 (ip), vehicle: saline with Tween-80
[5] = dose: 50.0 mg/kg/injection, schedule: Q01DX009 (ip), vehicle: saline
[6] = dose: 100.0 mg/kg/injection, schedule: Q01DX009 (ip), vehicle: saline
[7] = dose: 200.0 mg/kg/injection, schedule: Q01DX009 (ip), vehicle: saline

## OC(Cc1cnc2ccccc2c1)(c1ccccc1)c1ccccc1
dose: 25.0 mg/kg/injection, schedule: Q04DX002 (ip), vehicle: saline with Tween-80
  survivor count: 6 of 6

## Nc1nc(N)c(-c2ccc(Cl)c(Cl)c2)c(CP(Cl)(Cl)(Cl)Br)n1
dose: 50.0 mg/kg/injection, schedule: Q01DX009 (ip), vehicle: Klucel (hydroxypropylcellulose) (HPC)
  T/C: 135 % of control
dose: 100.0 mg/kg/injection, schedule: Q01DX009 (ip), vehicle: Klucel (hydroxypropylcellulose) (HPC)
  survivor count: 1 of 6
[1]
  survivor count: 0 of 6
dose: 400.0 mg/kg/injection, schedule: Q01DX009 (ip), vehicle: Klucel (hydroxypropylcellulose) (HPC)
  survivor count: 0 of 6

## Cc1cc[n+]2cc(-c3ccc(/C=N/N=C(N)N)cc3)n(C)c2c1
dose: 12.5 mg/kg/injection, schedule: Q01DX005 (ip), vehicle: Klucel (hydroxypropylcellulose) (HPC)
  survivor count: 3 of 6
dose: 25.0 mg/kg/injection, schedule: Q01DX005 (ip), vehicle: Klucel (hydroxypropylcellulose) (HPC)
  survivor count: 0 of 6

## NNc1nn2cnnc2c2ccccc12
dose: 100.0 mg/kg/injection, schedule: Q04DX002 (ip), vehicle: saline
  survivor count: 6 of 6
dose: 200.0 mg/kg/injection, schedule: Q04DX002 (ip), vehicle: saline
  survivor count: 5 of 6

## CN1CCC[N+](C)=C1c1ccc(N(C)C)cc1
dose: 6.25 mg/kg/injection, schedule: Q01DX005 (ip), vehicle: suspension in saline
  survivor count: 0 of 6
dose: 12.5 mg/kg/injection, schedule: Q01DX005 (ip), vehicle: suspension in saline
  survivor count: 0 of 6
dose: 25.0 mg/kg/injection, schedule: Q01DX005 (ip), vehicle: suspension in saline
  survivor count: 0 of 6
dose: 50.0 mg/kg/injection, schedule: Q01DX005 (ip), vehicle: suspension in saline
  survivor count: 0 of 6
dose: 100.0 mg/kg/injection, schedule: Q01DX005 (ip), vehicle: suspension in saline
  survivor count: 0 of 6
dose: 200.0 mg/kg/injection, schedule: Q01DX005 (ip), vehicle: suspension in saline
  survivor count: 0 of 6

## COc1ccc(NP2(=O)N(Cc3ccc(Cl)cc3)CCCN2Cc2ccc(Cl)cc2)cc1
dose: 200.0 mg/kg/injection, schedule: Q01DX005 (ip), vehicle: Klucel (hydroxypropylcellulose) (HPC)
  survivor count: 6 of 6

## N#CC(Br)CNC(=O)Oc1ccccc1 (configuration not stated)
dose: 400.0 mg/kg/injection, schedule: Q01DX005 (ip), vehicle: Klucel (hydroxypropylcellulose) (HPC)
  survivor count: 0 of 6

## COc1ccc(-c2nccc3cc(OC)c(OC)cc23)cc1OC
dose: 100.0 mg/kg/injection, schedule: Q01DX009 (ip), vehicle: water
  survivor count: 2 of 6

## CC1(C)C(/C=C\c2ccc(O)cc2)=Nc2ccccc21
[2]
  survivor count: 1 of 6
[3]
  survivor count: 0 of 6
dose: 200.0 mg/kg/injection, schedule: Q01DX009 (ip), vehicle: saline with Tween-80
  survivor count: 0 of 6

## CCCC(=O)O.CCCC(=O)O.CCCC(=O)O.CCCC(=O)O.[Rh].[Rh]
dose: 0.5 mg/kg/injection, schedule: Q01DX009 (ip), vehicle: saline + alcohol
  T/C: 125 and 139 % of control [5 of 6 alive]
dose: 1.0 mg/kg/injection, schedule: Q01DX009 (ip), vehicle: saline + alcohol
  survivor count: 5 of 6
dose: 2.0 mg/kg/injection, schedule: Q01DX009 (ip), vehicle: saline + alcohol
  survivor count: 2 of 6
dose: 4.0 mg/kg/injection, schedule: Q01DX009 (ip), vehicle: saline + alcohol
  survivor count: 0 of 6
dose: 62.5 micrograms/kg/injection, schedule: Q01DX009 (ip), vehicle: saline + alcohol
  T/C: 125 % of control
dose: 500.0 micrograms/kg/injection, schedule: Q08HX018 (ip), vehicle: saline + alcohol
  survivor count: 6 of 6
dose: 1000.0 micrograms/kg/injection, schedule: Q01DX009 (ip), vehicle: saline + alcohol
  survivor count: 6 of 6
dose: 1000.0 micrograms/kg/injection, schedule: Q08HX018 (ip), vehicle: saline + alcohol
  survivor count: 0 of 6
dose: 2000.0 micrograms/kg/injection, schedule: Q01DX009 (ip), vehicle: saline + alcohol
  survivor count: 3 of 6

## O=C1c2cccc3cc([N+](=O)[O-])cc(c23)C(=O)N1Cc1cccnc1
[4]
  survivor count: 6 of 6

## O=C(O)/C=C(\Br)C(=O)O
dose: 400.0 mg/kg/injection, schedule: Q04DX002 (ip), vehicle: saline
  survivor count: 1 of 6

## CCCCCCCCCCC[N+]1(CC)CCCC1
dose: 0.19 mg/kg/injection, schedule: Q01DX009 (ip), vehicle: saline
  survivor count: 6 of 6
dose: 3.12 mg/kg/injection, schedule: Q01DX009 (ip), vehicle: saline
  survivor count: 5 of 6
dose: 6.25 mg/kg/injection, schedule: Q01DX009 (ip), vehicle: saline
  survivor count: 3 of 6
dose: 12.5 mg/kg/injection, schedule: Q01DX009 (ip), vehicle: saline
  survivor count: 6 of 6
[5]
  survivor count: 0 of 6
[6]
  survivor count: 0 of 6
[7]
  survivor count: 0 of 6

## COc1ccc(Cc2c3cc(OC)c(OC)cc3cc(=O)n2C)cc1OC
[1]
  survivor count: 1 of 6

## [NH-]C(CCC(N)=O)C(=O)O.[NH-]C(CCC(N)=O)C(=O)O.[Ni+2] (configuration not stated)
dose: 25.0 mg/kg/injection, schedule: Q01DX005 (ip), vehicle: saline
  survivor count: 6 of 6

## O=C1OCCOCCOCCOC(=O)c2ccccc2SSc2ccccc21
dose: 400.0 mg/kg/injection, schedule: Q01DX001 (ip), vehicle: saline with Tween-80
  survivor count: 6 of 6

## CCCOP(=S)(N1CC1(C)C)N1CC1(C)C (configuration not stated)
[2]
  T/C: 140 % of control
dose: 66.0 mg/kg/injection, schedule: Q01DX009 (ip), vehicle: saline with Tween-80
  T/C: 135 % of control
[3]
  T/C: 135 % of control

## COc1cc(CCN(C)C)c([N+](=O)[O-])cc1OC
[5]
  survivor count: 0 of 6
[6]
  survivor count: 0 of 6
[7]
  survivor count: 0 of 6

## CC(=O)OC1CC[N+](C)(Cc2ccccc2)C1 (configuration not stated)
[7]
  survivor count: 0 of 6

## COc1ccc(Cc2cc(N=NC(N)=O)c(OC)cc2O)cc1
[4]
  survivor count: 6 of 6
dose: 100.0 mg/kg/injection, schedule: Q01DX005 (ip), vehicle: saline with Tween-80
  survivor count: 6 of 6
dose: 200.0 mg/kg/injection, schedule: Q01DX005 (ip), vehicle: saline with Tween-80
  survivor count: 6 of 6

From PubChem BioAssay AID330 (DTP/NCI, 2004)
